Here are results for one molecule from patent US20240247072A1 (KEYMED BIOSCIENCES, published 2024).

Results are given in words; binding and its absence hold for the method and conditions named. Binding can be weak; no strength is given.

This assay has as its target recombinant cynomolgus monkey CD70 protein (cynomolgus monkey). Description: ELISA binding, hybridoma supernatant, monkey CD70. (In general: ELISA stands for enzyme-linked immunosorbent assay.)

B1: 10C19-D11 hybridoma antibody (antibody, V domains shown)
VH: QVQLQQSGPGLVQPSQSLSITCTVSGFSLTTYAVHWFRQSPGQGLEWLGVIWSTGITDFNAAFISRLNINKDSSKSQIFFKMISLQPNDTAIYYCGRNSYYGNLYAMDYWGQGTSVTVSS
VL: DIVLTQSPTSLAVSLGQRATISCRASKSVSASGYNFMHWYQQKPGQPPKLLIYLASNLESGVPARFSGSGSETDFTLNIHPVEEGDAATYYCQHSRELPLTFGAGTKLELK
notes: Mouse antibody in hybridoma culture supernatant
Turning to B1, the binding entry is given as “binds”.
